Several values for one entry are separate records, joined by “and”; a condition that tells them apart may be missing. Equal entries are not always repeated.
Test system: Male Sprague-Dawley rats
Assay: Rat STZ model for diabetic neuropathy (cold plate, warm plate, paw pressure, SNCV)
Format: in vivo
Protocol: 7. Rat STZ Model for Diabetic Neuropathy (Diabetic Neuropathic Pain, Diabetes Induced Nerve Degeneration)
The streptozotocin (STZ) diabetic rat is the most extensively studied animal model of diabetic neuropathy. The animals develop rapidly allodynia and hyperalgesia.
Male Sprague-Dawley rats (˜200 g) were used. They were rendered diabetic by intravenous injection of streptozotocin (55 mg/kg; day 0). Four days (day 4) later, diabetes was confirmed in STZ-injected rats by obtaining a blood sample from the tail vein and by measuring the glucose concentration using a glucose monitor. Only STZ-treated rats with plasma-glucose>260 mg/dl were deemed “diabetic”. The body weight of rats was recorded on daily basis from day 4 to 40.
72 animals were randomly assigned to different groups (12 rats per group).
[…] The treatment was performed on daily basis (twice a day: morning and afternoon) from day 4 until day 40. On the day where behavioral measures are performed, compound or vehicle was given 60 min prior the assessment. On the day where electrophysiological measure was performed, treatment was performed after the assessment.
For positive control regarding analgesia, morphine was dissolved in 0.9% NaCl, and administrated subcutaneously (s.c.) at the dose of 3 mg/kg 45 min prior the tests.
Experimental Plan: • Day 0: induction of diabetes by injection of STZ for all groups except the control group injected with the STZ vehicle • Day 4: glycemia monitoring for all groups and start of the treatment for all groups, except the morphine group. On day 4 rats received only the evening treatment. • Day 10: cold and warm allodynia test for all groups. Treatment is given 60 min prior to the assessment. On that day, the time between the morning and the evening treatment was reduced. • Day 21: Mechanical hyperalgesia test for all groups. Compound or vehicle was given 60 min prior to the assessment. On that day, the time between the morning and the evening treatment was reduced. • Day 22: Termination of rats in the morphine group. • Day 25-26: measurement of sensory nerve conduction velocity (SNCV). On that day, rats only received the evening treatment. • Day 39-40: measurement of sensory nerve conduction velocity (SNCV). On that day, rats only received the evening treatment. • Day 41: skin biopsy from all rats (histology processing and immunostaining of skin biopsy from 7 rats per group take about 4 weeks).
Cold Plate Test on Day 10
The animals were placed into a glass cylinder on a cold platform (0-1° C.). The latency before the first reaction (brisk move of the paw, little leaps) was recorded with a maximal time of 30 s.
Warm Plate Test on Day 10
The animals were placed into a glass cylinder on a hot plate adjusted to 42° C. The latency of the first reaction was recorded (paw lifting or licking, leaps or a jump to escape the heat). Results can be seen in FIG. 8 and table 6.
Paw pressure test is used to assess the hyperalgesia of animals in response to noxious mechanical stimulus. The nociceptive flexion reflex was quantified using the Randall-Selitto paw pressure device (Bioseb, France), which applies a linearly increasing mechanical force to the dorsum of the rat's hind paw. The mechanical nociceptive threshold is defined as the force in grams at which the rat withdraws its paw. The cut off pressure was set to 250 g.
Electrophysiological Measurements (SNCV)
Electrophysiological recordings of SNCV were performed using a Keypoint Electromyograph (EMG) (Medtronic, France). Rats were anaesthetized by intraperitoneal injection of 60 mg/kg ketamine chlorhydrate and 4 mg/kg xylazine. SNCV was recorded in the tail. Electrodes were placed as follows: The recording needle electrode was inserted near the base of the tail and stimulating needle electrode is placed about 50 mm away from the recording electrode towards the extremity of the tail. […]

## O=C(O)c1cc(NC(=O)C2(c3ccc(C(F)(F)F)cc3F)CC2)ccc1-c1cnn(C2CCC2)c1 [Example 3, 2-(1-Cyclobutyl-1H-pyrazol-4-yl)-5-[({1-[2-fluoro-4-(trifluoromethyl)phenyl]cyclopropyl}carbonyl)amino]benzoic acid]
3 mg/kg, Day 10, individual animals, 3 mg/kg
  Weight: 265 g (2×) and 250 g and 246 g and 271 g (2×) and 257 g (2×) and 252 g and 223 g and 248 g and 249 g
3 mg/kg, Day 21, individual animals, 3 mg/kg
  Weight: 321 g and 314 g and 282 g and 354 g and 305 g and 300 g and 285 g and 264 g and 294 g and 293 g (2×) and 278 g
15 mg/kg, Day 10, individual animals, 15 mg/kg
  Weight: 251 g and 253 g and 237 g and 233 g and 247 g and 234 g and 258 g and 235 g and 226 g and 246 g and 275 g
15 mg/kg, Day 21, individual animals, 15 mg/kg
  Weight: 307 g and 308 g and 288 g and 282 g and 306 g and 273 g and 300 g and 278 g and 235 g and 274 g and 333 g
60 mg/kg, Day 10, individual animals, 60 mg/kg
  Weight: 239 g and 240 g and 218 g and 227 g and 243 g and 230 g and 233 g and 267 g and 249 g and 221 g and 260 g and 229 g
60 mg/kg, Day 21, individual animals, 60 mg/kg
  Weight: 286 g and 323 g and 241 g and 295 g and 303 g and 300 g and 270 g and 312 g and 289 g and 285 g and 324 g and 266 g

Reference: US12023319B2, “Carboxylic acid aromatic amides” (priority 2016, dated 2024)
